## Library screen at single concentrations

Amino acid sequences for entries named in this document (tags omitted). Residues count along the entry.
UniProt Q4DA54, 1-478: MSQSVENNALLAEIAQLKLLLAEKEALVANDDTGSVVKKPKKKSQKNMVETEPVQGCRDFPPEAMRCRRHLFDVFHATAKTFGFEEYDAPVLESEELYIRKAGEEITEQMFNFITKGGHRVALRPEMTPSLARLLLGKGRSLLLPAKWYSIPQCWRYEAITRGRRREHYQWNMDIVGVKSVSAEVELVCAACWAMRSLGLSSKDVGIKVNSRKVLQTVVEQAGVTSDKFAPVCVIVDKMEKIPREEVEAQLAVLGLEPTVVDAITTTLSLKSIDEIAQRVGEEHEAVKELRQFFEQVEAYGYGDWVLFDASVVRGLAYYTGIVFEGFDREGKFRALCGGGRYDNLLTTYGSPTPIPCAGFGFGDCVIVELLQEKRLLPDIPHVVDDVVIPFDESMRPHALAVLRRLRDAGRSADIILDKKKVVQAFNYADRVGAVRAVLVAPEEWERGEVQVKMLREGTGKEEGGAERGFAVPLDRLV
UniProt P9WFT3, whole entry: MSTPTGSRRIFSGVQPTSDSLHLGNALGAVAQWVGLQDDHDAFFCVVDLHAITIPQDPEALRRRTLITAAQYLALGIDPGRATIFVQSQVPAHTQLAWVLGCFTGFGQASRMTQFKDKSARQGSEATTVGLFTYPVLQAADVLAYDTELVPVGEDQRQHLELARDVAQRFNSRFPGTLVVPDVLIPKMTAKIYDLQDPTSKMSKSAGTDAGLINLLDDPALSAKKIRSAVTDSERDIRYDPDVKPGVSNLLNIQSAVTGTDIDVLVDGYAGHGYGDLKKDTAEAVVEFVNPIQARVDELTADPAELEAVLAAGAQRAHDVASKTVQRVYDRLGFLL
UniProt I6X8D2, whole entry: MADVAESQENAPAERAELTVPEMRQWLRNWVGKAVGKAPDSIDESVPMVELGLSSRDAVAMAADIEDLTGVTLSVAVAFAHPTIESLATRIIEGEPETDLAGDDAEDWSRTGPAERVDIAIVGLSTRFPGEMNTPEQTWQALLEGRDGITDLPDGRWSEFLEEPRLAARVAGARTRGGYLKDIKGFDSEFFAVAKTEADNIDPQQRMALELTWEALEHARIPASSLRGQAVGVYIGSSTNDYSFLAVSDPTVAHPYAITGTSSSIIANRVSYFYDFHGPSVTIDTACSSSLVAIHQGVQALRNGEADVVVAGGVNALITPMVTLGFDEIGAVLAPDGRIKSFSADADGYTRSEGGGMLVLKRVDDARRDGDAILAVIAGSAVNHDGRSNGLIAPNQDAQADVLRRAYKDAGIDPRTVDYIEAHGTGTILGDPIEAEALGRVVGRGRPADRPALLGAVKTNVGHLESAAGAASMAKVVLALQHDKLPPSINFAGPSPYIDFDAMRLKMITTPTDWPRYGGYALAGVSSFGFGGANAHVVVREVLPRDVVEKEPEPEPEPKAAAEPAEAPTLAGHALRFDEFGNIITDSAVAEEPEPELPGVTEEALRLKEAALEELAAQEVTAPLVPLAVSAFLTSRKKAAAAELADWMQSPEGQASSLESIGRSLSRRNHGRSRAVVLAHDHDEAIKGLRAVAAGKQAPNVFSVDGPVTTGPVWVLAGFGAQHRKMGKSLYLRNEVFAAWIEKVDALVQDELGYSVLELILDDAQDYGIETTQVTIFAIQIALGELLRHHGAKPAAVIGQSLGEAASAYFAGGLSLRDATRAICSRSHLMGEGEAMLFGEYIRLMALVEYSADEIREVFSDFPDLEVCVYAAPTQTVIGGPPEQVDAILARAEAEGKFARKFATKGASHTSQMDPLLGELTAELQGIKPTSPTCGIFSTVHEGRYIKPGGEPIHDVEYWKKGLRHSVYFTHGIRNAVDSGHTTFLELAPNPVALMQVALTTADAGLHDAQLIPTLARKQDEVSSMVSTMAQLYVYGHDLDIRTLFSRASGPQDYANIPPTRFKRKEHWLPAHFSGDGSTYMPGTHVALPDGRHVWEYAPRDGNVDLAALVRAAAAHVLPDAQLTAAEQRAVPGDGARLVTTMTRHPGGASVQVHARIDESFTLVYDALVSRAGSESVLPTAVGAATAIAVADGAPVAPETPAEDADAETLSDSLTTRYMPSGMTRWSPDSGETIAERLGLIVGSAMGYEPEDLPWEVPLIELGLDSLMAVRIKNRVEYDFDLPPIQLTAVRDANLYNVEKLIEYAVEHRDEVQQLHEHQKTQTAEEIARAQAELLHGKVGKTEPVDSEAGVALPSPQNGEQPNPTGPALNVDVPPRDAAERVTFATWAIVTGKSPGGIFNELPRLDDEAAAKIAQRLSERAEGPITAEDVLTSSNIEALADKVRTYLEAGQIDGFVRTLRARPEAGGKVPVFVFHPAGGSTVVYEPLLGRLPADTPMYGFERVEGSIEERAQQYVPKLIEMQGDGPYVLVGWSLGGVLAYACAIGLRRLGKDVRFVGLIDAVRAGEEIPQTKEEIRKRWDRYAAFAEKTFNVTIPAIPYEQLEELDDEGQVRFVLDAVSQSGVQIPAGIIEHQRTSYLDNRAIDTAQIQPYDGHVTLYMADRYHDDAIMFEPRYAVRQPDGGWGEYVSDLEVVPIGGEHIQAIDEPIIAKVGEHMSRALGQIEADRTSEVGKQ
UniProt Q8IDJ8, 1-583: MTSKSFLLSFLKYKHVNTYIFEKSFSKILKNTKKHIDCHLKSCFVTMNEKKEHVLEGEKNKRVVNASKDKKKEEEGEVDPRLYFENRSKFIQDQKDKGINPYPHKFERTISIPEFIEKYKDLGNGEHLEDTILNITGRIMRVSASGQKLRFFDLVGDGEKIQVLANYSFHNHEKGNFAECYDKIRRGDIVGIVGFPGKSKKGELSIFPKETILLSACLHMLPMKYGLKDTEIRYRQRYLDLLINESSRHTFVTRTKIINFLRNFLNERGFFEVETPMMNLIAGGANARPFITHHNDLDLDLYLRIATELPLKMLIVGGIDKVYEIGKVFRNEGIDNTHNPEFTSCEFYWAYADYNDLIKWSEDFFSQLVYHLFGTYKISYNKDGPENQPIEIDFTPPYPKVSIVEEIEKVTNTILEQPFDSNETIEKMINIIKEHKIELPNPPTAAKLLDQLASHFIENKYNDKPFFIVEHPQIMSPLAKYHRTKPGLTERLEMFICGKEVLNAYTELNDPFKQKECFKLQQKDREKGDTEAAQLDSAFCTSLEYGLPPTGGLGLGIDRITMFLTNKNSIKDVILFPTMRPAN

Values are the deposited “Percent Effect”, in %. How 0% and 100% were set is not recorded. Most values in the screen are low, and negative values occur. Compounds were drawn at random from those tested, without regard to their results.

TcHisRS: 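Histidine-tRNA ligase, Trypanosoma cruzi CL Brener (UniProt Q4DA54). Enzyme assay of histidyl-tRNA synthetase; the read-out is not stated. Tested at 30 µM. Direction is inferred from retests: higher values go with stronger inhibition. Size under these conditions: about 69,000 compounds, about 31 of them at 50% or above in at least one test.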
MtTrpRS: 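Tryptophan-tRNA ligase, Mycobacterium tuberculosis (UniProt P9WFT3). Enzyme assay of tryptophanyl-tRNA synthetase; the read-out is not stated. Tested at 10 µM. Direction is not recorded; retested compounds ran higher, which suggests that high means inhibition. Size under these conditions: about 65,000 compounds, about 64 of them at 50% or above in at least one test.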
Pks13 thioesterase: 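Enzyme assay of the thioesterase domain of polyketide synthase 13; the read-out is not stated. Target: Polyketide synthase Pks13, Mycobacterium tuberculosis (UniProt I6X8D2). Tested at 30 µM. Higher reads as stronger inhibition (inferred from which compounds were picked for retests). Size under these conditions: about 67,000 compounds, about 300 of them at 50% or above in at least one test.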
PfKRS1: 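Lysine-tRNA ligase, Plasmodium falciparum 3D7 (UniProt Q8IDJ8). Enzyme assay of the cytosolic lysyl-tRNA synthetase in 384-well plates, read by luminescence. Compounds at 30 µM. Higher reads as stronger inhibition, judged from the few compounds that gave an IC50. Size under these conditions: about 69,000 compounds, about 49 of them at 50% or above in at least one test.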
Toxoplasma: 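Assay of Toxoplasma gondii numbers, read through their beta-galactosidase reporter with a colour substrate. Tested at 10 µM. Higher reads as fewer parasites (inferred from which compounds were picked for retests). Size under these conditions: about 67,000 compounds, about 260 of them at 50% or above in at least one test.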

{"structure": "O=C(NCC1Cn2nnc(-c3ccsc3)c2CO1)N1CCCC1", "stereo": "stereo not given", "TcHisRS": 4.124, "MtTrpRS": -1.39, "Pks13 thioesterase": -15.89, "PfKRS1": 6.204, "Toxoplasma": -17.4}
{"structure": "COCCNC(=O)c1nc(NS(=O)(=O)c2ccccc2)sc1C", "TcHisRS": 5.699, "MtTrpRS": 3.317, "Pks13 thioesterase": -17.86, "PfKRS1": -0.2232, "Toxoplasma": 2.386}
{"structure": "COc1ccc(NC(=O)N2CCN(c3ncccn3)CC2)cn1", "TcHisRS": 2.479, "MtTrpRS": -0.2138, "Pks13 thioesterase": 6.934, "PfKRS1": 6.201, "Toxoplasma": -2.189}
{"structure": "Cc1cc(C)n(CC2CN(Cc3cc(C)on3)CCO2)n1", "stereo": "stereo not given", "TcHisRS": 8.824, "MtTrpRS": -2.912, "Pks13 thioesterase": -12.49, "PfKRS1": -0.934, "Toxoplasma": -8.096}
{"structure": "Cn1cc(-c2cccc(CNC(=O)N3CCC[C@@H]3CO)c2)cn1", "TcHisRS": 6.897, "MtTrpRS": -4.613, "Pks13 thioesterase": -8.074, "PfKRS1": 3.773}
{"structure": "[H][C@]12COC[C@H](N3CCN(C)CC3)[C@@]1([H])CN(Cc1cccnc1)C2", "Toxoplasma": -1.113}
{"structure": "c1ccc(-n2ccc(CN3CCCC3Cn3cccn3)n2)cc1", "stereo": "stereo not given", "TcHisRS": 3.422, "MtTrpRS": -0.807, "Pks13 thioesterase": -2.595, "PfKRS1": -1.526, "Toxoplasma": -0.6674}
{"structure": "COCCOCC(=O)NCCCOC1CCCc2ccccc21", "stereo": "stereo not given", "TcHisRS": -3.665, "MtTrpRS": 12.79, "Pks13 thioesterase": -2.405, "PfKRS1": -0.8134, "Toxoplasma": 27.82}
{"structure": "CNC(=O)C1CCN(C(=O)CCn2cccn2)CC1", "TcHisRS": 2.682, "MtTrpRS": 0.8746, "Pks13 thioesterase": -15.79, "PfKRS1": -1.744, "Toxoplasma": -51.8}
{"structure": "CCOC(=O)CN1C[C@@H]2OCCN(c3ncc(F)cn3)[C@@H]2C1", "TcHisRS": -7.477, "MtTrpRS": 11.52, "Pks13 thioesterase": -42.21, "PfKRS1": 0.8334}
{"structure": "O=C1CC(c2ccc(C(=O)O)cc2)c2ncn(-c3cccc(F)c3)c2N1", "stereo": "stereo not given", "TcHisRS": -3.825, "MtTrpRS": 4.623, "Pks13 thioesterase": -12.81, "PfKRS1": 16.87, "Toxoplasma": -2.869}
{"structure": "C[C@H]1CN2C[C@H](O)CC2CN1Cc1ccncc1", "stereo": "stereo not given in full", "TcHisRS": 4.615, "MtTrpRS": -3.465, "Pks13 thioesterase": 6.364, "PfKRS1": 2.296}
{"structure": "CCOc1ccc(-c2cc(CCN)ccc2OC)cc1", "TcHisRS": -3.867, "MtTrpRS": 3.604, "Pks13 thioesterase": -5.795, "PfKRS1": -0.5104, "Toxoplasma": 22}
{"structure": "CCN(C(=O)C1=NN(c2ccccc2)C(=O)CN1)c1ccccc1", "TcHisRS": 5.882, "MtTrpRS": -6.116, "Pks13 thioesterase": -11.24, "PfKRS1": 4.132, "Toxoplasma": 5.192}
{"structure": "COc1c(F)cc(-c2cccc3c2OC(CN)C3)cc1F", "stereo": "stereo not given", "TcHisRS": 13.94, "MtTrpRS": -5.447, "Pks13 thioesterase": 23.87, "PfKRS1": -3.299, "Toxoplasma": -49.04}
{"structure": "Cc1csc(N(C)C(=O)C2CC(=O)N(c3ccccc3Cl)C2)n1", "stereo": "stereo not given", "TcHisRS": 1.63, "MtTrpRS": -7.834, "Pks13 thioesterase": -21.13, "PfKRS1": 6.346, "Toxoplasma": -7.87}
{"structure": "CCS(=O)(=O)N1CCN(CCn2cccn2)c2nc(C)ccc2C1.O=C(O)C(F)(F)F", "Toxoplasma": 22.73}
{"structure": "O=C(O)C(F)(F)F.O=C(c1cnoc1)N1CCC[C@]2(C[C@H](Oc3ncccc3F)CO2)C1", "Toxoplasma": 11.68}
{"structure": "COc1cccc(CN2CCC3(CC2)CCN(c2ncccn2)C3)c1", "TcHisRS": 7.527, "MtTrpRS": -0.9161, "Pks13 thioesterase": -17.99, "PfKRS1": 2.411}
{"structure": "CCn1ccnc1CN1CCN(CC(=O)NC(=O)NC2CC2)CC1", "TcHisRS": 0.3802, "MtTrpRS": -5.818, "Pks13 thioesterase": -4.349, "PfKRS1": 1.516, "Toxoplasma": -17.08}
{"structure": "Cc1ccccc1CC(=O)N1C[C@@H](O)[C@H](N2CCC(F)(F)CC2)C1", "TcHisRS": 8.647, "MtTrpRS": -1.171, "Pks13 thioesterase": -4.557, "PfKRS1": 0.5492, "Toxoplasma": 11.43}
{"structure": "O=C(c1cccnc1)N1CCc2ncnc(C3CCOC3)c2CC1", "stereo": "stereo not given", "TcHisRS": 8.197, "MtTrpRS": -1.057, "Pks13 thioesterase": -9.789, "PfKRS1": -0.3932}
{"structure": "[H][C@@]12CNCC[C@]1(O)CCN(c1ccnc3ccccc13)C2", "Toxoplasma": 11.53}
{"structure": "[H][C@]12CCN(C(=O)c3ccoc3)[C@@]1([H])CC[C@H](COCC1CCOCC1)O2", "Toxoplasma": -9.706}
{"structure": "O=C(Nc1cccnc1)NC1(c2cccc(F)c2)CC1", "TcHisRS": 11.46, "MtTrpRS": -7.434, "Pks13 thioesterase": -14.64, "PfKRS1": 6.442, "Toxoplasma": 7.004}

Repeated from the top, 2 entries:

{"structure": "O=C(NCC1Cn2nnc(-c3ccsc3)c2CO1)N1CCCC1", "stereo": "stereo not given", "TcHisRS": 4.124, "MtTrpRS": -1.39, "Pks13 thioesterase": -15.89, "PfKRS1": 6.204, "Toxoplasma": -17.4}
{"structure": "COCCNC(=O)c1nc(NS(=O)(=O)c2ccccc2)sc1C", "TcHisRS": 5.699, "MtTrpRS": 3.317, "Pks13 thioesterase": -17.86, "PfKRS1": -0.2232, "Toxoplasma": 2.386}

Data taken from ChEMBL document CHEMBL3988442, “University of Dundee, Small-Polar-MMV Screening Library” (2021).